Reference: patent publication US20030201224A1, “Microbial consortium for the biodegradation of dithiocarbamates” (priority 2002, published 2003)
Read-outs that look alike come from different tables or passages of the source.

Test system: consortium
Settings: without consortium

## CN(C)C(=S)[S-].[Na+] [SDM, Sodium dimethyl dithiocarbamate]
Time 0 h
  SDM, control (w/o consortium): 959 mg/mL
Time 48 h
  SDM, control (w/o consortium): 923 mg/mL
Time 80 h
  SDM, control (w/o consortium): 871 mg/mL
Time 120 h
  SDM, control (w/o consortium): 825 mg/mL
Time 168 h
  SDM, control (w/o consortium): 812 mg/mL
Time 312 h
  SDM, control (w/o consortium): 794 mg/mL
